From patent US6126909A, “Process and apparatus for the production of BI-212 and a use thereof” (Arch Development Corporation, priority 1999, dated 2000)
At least one compound was matched to its structure with a doubt left.

Experiments:
[1] = Biodistribution after intraperitoneal instillation; assay type: in vivo, rabbit; details: one-half hour, one hour and 3 hours after instillation
Method: In vivo studies were conducted to determine the distribution of Bi-212 produced using the above-noted process and to compare the Bi-212 distribution to the distribution of Pb-212 ferrous hydroxide in colloidal form. The in vivo studies were conducted using white, female New Zealand rabbits weighing about 4.5 kilograms ([…]) each. Studies were also conducted using rabbits to determine the toxicity levels, e.g., the maximum tolerated dose. Efficacy studies were conducted using 25 gram (gm) female Swiss-Webster mice inoculated with Ehrlich-Lettre Ascites carcinoma cells.
The rabbits were first anesthetized by intravenous titration. […]
Groups of rabbits were instilled with a varying amounts (correlating to varying activities) of Bi-212 that were prepared in accordance with the before-described process, neutralized to pH values of between 5.0 and 7.4, and had added thereto a quantity of normal saline to make a 200 cc sample. […]
Of the groups of rabbits instilled with the Bi-212 solution, a rabbit was imaged and necropsied at each of one-half hour, one hour and three hours after instillation. The percent injected activity (%IA) in each organ was measured to determine the distribution of the Bi-212(Table 6). […] The percent activity remaining in the peritoneal fluid was measured.

[2] = cited from earlier work
[3] = Maximum tolerated dose in mice; assay type: in vivo, mouse

For [212Bi] [Bi-212, bismuth-212], the “Activity remaining in the peritoneal fluid” value [1] is given as 85.1 percent to 88, the “Half-life (radioactive)” value [2] is given as 1.01 h and the Maximum tolerated dose [3] is given as 0.65 mCi.
